Laboratory results reported in publication doi:10.1101/2023.01.03.522599.
Substitutions are numbered along the chain they refer to. In names and notes the source's numbering stands. These are yes or no findings as the source states them, for the method shown. Some binding calls cover weakened binding; strength is not graded here. Sequences can lack the tags named with a protein.

Amino acid sequences for entries named in this document (tags omitted). A change or cut given only in a name is not applied to a line headed by its entry. Residues count along the entry.
UniProt Q9NZQ7, 239-259: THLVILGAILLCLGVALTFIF
UniProt Q9NZQ7, 19-238: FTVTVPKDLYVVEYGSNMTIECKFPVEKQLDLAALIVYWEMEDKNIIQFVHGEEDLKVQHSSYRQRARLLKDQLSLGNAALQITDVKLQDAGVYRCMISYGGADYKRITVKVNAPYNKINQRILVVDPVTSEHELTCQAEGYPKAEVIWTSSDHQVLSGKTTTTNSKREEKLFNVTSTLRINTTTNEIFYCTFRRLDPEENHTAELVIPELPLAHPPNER
UniProt Q9NZQ7, 239-290: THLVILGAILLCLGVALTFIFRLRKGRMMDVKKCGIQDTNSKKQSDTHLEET
UniProt Q9NZQ7, 260-290: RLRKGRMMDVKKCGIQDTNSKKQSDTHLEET

What was measured:
Experiment in all cases: pull-down
[1] = target: human PD-L1 cytosolic domain, BRIL fused to the C-terminus, C-terminally His-tagged (human) (UniProt Q9NZQ7)
[2] = target: human PD-L1 extracellular domain, BRIL fused to the C-terminus, C-terminally His-tagged (human) (UniProt Q9NZQ7)
[3] = target: human PD-L1 transmembrane and cytosolic domains, BRIL fused to the C-terminus, C-terminally His-tagged (human) (UniProt Q9NZQ7)
[4] = target: human PD-L1 transmembrane domain mutant F259A, BRIL fused to the C-terminus, C-terminally His-tagged (human) (UniProt Q9NZQ7)
[5] = target: human PD-L1 transmembrane domain triple mutant I243A/I247A/F257A, BRIL fused to the C-terminus, C-terminally His-tagged (human) (UniProt Q9NZQ7)
[6] = target: human PD-L1 transmembrane domain, BRIL fused to the C-terminus, C-terminally His-tagged (human) (UniProt Q9NZQ7)

B1: bovine CMTM6 protein (CKLF-like MARVEL transmembrane domain-containing protein 6), BRIL fused to the C-terminus (protein, UniProt Q3ZBE8 1-182)
chain: MENGQVYRATTEAHPGPGIGPRSGLAAYFTLSRLTGFRRLKLLELVLSLLAFICEEVVSQCTLCGGLYFFEFVSCSAFLLSLLILVVYCTPVYDRVDPAKVKSSDFFITLGTGLVFFVASLTFTLTHDNTIAEIAAIVFGMLASLTYLAEFSFMLREKLKEPRPRKGEATMRREHLTEPLNA
[1]
  binding: no binding
[2]
  binding: no binding
[3]
  binding: binds
[4]
  binding: binds
[5]
  binding: binds
[6]
  binding: binds

B2: bovine CMTM6 TM2/TM3 double mutant F69A/F72A, BRIL fused to the C-terminus (protein, UniProt Q3ZBE8 1-182)
chain: B1 chain with F69A, F72A
[6]
  binding: binds
